Data from the supplement of paper PMC12823440, “Inhibitors supercharge kinase turnover through native proteolytic circuits” (Nature, 2025).
The list shows a part of the results. Hit calls seldom repeat between salt and free forms of one compound.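 Kinases, fused to nanoluciferase, were expressed in K562 cells; luminescence was measured every 4 h from 2 to 18 h as percent of control (DMSO = 100%, positive control = 0%). A time point is decreased if signal falls significantly (2 sigma). Hits were called by the authors by a rule that is not shown; the count of time points alone does not decide it.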

Sequences of proteins named here, by UniProt entry; tags and fusion partners are left off. A change or cut given only in a name is not applied to a line headed by its entry.
UniProt Q01974, whole entry: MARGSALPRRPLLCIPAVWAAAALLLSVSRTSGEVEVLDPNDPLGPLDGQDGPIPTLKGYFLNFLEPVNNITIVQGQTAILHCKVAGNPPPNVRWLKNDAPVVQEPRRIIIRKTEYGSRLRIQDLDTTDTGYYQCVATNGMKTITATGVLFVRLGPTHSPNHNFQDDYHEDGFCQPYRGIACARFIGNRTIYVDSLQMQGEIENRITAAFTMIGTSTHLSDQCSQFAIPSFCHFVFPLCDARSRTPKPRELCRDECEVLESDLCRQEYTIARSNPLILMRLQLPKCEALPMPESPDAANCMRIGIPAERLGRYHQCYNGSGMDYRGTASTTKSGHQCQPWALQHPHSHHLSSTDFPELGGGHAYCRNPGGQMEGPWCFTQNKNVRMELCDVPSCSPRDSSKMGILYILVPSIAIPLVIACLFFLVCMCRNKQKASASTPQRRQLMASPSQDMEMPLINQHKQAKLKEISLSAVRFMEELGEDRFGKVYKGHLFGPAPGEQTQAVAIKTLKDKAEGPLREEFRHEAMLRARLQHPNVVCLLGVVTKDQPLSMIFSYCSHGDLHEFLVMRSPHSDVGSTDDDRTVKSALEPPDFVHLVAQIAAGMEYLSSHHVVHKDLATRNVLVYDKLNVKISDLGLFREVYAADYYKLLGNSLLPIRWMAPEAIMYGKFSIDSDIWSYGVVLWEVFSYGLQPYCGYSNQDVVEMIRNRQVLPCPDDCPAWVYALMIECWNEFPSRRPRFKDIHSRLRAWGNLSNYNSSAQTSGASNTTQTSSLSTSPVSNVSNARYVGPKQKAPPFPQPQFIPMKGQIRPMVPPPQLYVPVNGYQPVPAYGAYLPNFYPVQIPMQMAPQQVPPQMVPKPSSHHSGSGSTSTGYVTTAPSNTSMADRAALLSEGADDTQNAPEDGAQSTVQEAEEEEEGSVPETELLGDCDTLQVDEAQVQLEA
UniProt Q15418, whole entry: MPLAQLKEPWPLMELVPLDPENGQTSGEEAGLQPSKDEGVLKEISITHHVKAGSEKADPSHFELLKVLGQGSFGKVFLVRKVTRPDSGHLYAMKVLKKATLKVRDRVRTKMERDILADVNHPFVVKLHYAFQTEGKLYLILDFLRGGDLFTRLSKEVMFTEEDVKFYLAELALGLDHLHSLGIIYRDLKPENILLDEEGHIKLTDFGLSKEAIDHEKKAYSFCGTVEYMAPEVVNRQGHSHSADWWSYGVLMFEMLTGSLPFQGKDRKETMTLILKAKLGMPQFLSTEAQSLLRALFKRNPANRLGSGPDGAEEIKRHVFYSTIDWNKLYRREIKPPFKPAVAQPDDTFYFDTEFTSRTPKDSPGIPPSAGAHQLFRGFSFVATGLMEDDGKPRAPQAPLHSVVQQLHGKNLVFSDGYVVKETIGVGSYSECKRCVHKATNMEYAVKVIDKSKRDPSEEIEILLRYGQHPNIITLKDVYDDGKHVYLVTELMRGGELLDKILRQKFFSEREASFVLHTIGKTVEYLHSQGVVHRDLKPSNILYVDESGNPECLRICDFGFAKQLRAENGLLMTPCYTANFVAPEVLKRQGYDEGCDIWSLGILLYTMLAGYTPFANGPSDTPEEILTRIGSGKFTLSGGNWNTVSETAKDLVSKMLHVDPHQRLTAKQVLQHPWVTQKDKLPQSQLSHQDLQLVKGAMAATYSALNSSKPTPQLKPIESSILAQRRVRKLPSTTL
UniProt Q9NYA1, whole entry: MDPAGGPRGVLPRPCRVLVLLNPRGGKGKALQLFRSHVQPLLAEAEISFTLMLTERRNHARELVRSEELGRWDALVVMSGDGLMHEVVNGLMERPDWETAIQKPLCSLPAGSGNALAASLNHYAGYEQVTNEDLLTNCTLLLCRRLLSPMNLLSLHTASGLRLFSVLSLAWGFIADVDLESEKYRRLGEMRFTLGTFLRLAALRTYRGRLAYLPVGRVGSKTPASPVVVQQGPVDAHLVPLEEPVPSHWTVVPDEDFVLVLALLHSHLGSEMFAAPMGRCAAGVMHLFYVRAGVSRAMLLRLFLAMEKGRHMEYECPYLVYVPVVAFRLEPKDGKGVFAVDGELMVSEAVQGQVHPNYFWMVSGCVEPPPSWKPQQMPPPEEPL
UniProt Q9Y6E0: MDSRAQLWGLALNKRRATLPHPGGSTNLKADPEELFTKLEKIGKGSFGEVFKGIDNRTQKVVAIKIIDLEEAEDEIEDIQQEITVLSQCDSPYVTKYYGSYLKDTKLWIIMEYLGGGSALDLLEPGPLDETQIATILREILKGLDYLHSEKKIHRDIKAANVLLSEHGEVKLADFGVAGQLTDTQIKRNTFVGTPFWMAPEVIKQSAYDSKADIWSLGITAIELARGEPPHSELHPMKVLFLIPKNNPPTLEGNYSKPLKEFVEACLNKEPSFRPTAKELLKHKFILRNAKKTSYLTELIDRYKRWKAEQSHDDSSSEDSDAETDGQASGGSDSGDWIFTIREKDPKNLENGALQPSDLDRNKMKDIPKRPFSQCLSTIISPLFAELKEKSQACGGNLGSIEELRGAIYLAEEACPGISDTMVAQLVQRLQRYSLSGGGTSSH
UniProt Q15208: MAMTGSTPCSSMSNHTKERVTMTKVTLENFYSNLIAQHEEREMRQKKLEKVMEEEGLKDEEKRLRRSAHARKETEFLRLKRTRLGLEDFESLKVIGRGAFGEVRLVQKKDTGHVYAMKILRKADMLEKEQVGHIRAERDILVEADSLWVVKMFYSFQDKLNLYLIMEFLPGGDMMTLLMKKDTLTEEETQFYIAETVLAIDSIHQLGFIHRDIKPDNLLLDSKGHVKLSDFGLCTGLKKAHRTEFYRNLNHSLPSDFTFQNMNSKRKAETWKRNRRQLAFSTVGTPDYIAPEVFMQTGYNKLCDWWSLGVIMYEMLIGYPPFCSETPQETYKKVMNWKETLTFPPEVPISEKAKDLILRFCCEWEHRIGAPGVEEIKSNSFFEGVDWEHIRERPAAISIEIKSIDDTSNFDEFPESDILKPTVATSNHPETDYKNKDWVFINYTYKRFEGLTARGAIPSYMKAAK
UniProt P29597: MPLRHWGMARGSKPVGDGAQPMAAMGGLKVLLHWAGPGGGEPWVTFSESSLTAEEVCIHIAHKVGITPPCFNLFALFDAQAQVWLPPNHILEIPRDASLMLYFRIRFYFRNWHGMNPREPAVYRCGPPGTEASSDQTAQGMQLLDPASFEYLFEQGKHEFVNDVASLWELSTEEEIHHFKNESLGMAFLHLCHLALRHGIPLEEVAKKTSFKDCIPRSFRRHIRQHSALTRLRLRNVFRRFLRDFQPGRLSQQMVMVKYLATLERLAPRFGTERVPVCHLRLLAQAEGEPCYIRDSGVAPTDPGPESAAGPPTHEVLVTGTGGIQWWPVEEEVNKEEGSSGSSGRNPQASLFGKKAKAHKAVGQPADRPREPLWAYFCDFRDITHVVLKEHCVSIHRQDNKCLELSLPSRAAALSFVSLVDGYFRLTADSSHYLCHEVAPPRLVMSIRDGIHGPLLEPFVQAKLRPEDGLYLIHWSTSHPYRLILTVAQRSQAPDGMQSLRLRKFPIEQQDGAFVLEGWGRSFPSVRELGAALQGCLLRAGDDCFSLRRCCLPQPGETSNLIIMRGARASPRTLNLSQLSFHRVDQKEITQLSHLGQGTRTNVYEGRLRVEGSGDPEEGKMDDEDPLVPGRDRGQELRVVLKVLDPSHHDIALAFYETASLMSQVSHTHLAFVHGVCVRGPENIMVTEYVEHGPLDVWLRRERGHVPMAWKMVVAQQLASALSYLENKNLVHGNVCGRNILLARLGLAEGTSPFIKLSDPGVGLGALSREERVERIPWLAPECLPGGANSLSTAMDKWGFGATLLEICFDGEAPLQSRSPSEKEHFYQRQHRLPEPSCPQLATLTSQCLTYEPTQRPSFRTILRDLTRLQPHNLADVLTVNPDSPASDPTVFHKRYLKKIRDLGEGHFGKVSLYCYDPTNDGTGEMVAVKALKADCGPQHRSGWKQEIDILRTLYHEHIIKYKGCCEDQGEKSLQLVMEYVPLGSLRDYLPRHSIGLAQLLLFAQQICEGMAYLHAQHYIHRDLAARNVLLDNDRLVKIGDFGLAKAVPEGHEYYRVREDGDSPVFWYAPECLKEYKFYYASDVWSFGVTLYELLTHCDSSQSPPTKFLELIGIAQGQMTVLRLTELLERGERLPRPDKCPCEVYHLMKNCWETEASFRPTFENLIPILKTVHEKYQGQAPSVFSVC
UniProt Q6PHR2: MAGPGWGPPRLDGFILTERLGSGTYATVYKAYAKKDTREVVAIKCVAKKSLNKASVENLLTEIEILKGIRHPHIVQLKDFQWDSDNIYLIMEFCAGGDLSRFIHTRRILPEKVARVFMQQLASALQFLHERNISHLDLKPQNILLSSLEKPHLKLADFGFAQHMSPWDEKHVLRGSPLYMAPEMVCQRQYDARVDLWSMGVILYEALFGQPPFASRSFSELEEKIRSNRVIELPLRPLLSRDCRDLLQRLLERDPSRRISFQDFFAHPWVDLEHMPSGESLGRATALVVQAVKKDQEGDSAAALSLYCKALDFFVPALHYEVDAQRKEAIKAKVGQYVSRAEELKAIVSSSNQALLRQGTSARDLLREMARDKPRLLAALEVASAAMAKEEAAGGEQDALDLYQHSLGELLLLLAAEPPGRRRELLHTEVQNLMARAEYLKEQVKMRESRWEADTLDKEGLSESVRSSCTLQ
UniProt P07947, whole entry, looked up: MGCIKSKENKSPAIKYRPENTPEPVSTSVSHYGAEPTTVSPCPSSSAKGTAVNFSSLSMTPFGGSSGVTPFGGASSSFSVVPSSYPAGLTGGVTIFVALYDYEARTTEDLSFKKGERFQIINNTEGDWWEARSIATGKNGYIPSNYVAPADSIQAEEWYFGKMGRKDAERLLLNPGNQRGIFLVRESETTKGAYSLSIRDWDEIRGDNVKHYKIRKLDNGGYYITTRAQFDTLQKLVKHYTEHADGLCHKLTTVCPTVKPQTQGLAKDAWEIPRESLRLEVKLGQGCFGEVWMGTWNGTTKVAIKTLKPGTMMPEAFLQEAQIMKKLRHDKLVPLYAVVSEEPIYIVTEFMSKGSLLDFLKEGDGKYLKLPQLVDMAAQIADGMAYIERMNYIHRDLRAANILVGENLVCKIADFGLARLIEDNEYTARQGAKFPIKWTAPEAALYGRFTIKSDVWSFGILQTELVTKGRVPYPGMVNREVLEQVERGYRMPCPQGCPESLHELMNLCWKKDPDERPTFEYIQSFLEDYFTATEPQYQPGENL
UniProt P43403: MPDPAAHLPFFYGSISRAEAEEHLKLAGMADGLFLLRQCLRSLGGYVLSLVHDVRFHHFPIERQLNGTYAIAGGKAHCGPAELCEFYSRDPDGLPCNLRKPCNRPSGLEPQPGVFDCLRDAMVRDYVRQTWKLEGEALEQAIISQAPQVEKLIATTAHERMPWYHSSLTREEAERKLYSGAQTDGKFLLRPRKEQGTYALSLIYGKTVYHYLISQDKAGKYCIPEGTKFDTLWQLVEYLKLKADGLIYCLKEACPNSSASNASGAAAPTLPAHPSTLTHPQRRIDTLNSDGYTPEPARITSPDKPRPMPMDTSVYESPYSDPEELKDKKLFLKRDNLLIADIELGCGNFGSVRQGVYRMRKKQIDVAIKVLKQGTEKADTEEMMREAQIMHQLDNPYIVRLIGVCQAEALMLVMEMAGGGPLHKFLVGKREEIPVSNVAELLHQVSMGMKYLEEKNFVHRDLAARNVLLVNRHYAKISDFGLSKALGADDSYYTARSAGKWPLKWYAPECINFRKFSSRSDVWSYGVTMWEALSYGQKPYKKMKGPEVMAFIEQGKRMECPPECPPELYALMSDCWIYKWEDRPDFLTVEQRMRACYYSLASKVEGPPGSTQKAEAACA
UniProt P11802: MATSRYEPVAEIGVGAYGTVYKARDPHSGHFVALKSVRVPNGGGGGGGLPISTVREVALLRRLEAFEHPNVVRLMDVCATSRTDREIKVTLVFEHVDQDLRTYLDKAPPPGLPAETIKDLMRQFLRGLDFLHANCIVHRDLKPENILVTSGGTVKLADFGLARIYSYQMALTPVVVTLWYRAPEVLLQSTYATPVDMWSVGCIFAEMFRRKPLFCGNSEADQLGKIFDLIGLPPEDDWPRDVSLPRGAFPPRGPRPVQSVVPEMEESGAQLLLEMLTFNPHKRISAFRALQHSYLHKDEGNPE
UniProt P50613: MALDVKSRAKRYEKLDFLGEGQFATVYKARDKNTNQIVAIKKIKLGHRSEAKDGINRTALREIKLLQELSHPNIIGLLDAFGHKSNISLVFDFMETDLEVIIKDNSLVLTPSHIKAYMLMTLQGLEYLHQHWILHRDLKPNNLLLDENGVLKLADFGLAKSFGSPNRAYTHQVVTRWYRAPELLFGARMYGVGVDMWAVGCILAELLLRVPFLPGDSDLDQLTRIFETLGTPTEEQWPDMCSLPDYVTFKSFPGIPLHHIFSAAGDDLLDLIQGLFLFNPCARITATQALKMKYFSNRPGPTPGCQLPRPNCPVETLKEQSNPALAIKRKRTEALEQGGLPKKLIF

How the values were obtained:
Details in all cases: K562; 2-18 h
ROR2 = ROR2 (UniProt Q01974); test: number of time points (of 5) at which kinase-Nluc abundance scored as decreased, DMSO-normalised (count); higher = more persistent destabilization
RPS6KA1 = RPS6KA1 (UniProt Q15418); test: as above
SPHK1 = SPHK1 (UniProt Q9NYA1); test: as above
SRC = SRC (UniProt P12931); test: as above
STK24 = STK24 (UniProt Q9Y6E0); test: as above
STK38 = STK38 (UniProt Q15208); test: as above
SYK = SYK (UniProt P43405); test: as above
TEC = TEC (UniProt P42680); test: as above
TYK2 = TYK2 (UniProt P29597); test: as above
ULK3 = ULK3 (UniProt Q6PHR2); test: as above
YES1 = YES1 (UniProt P07947); test: as above
ZAK = ZAK (UniProt Q9NYL2); test: as above
ZAP70 = ZAP70 (UniProt P43403); test: as above
CDK4 = CDK4 (UniProt P11802); test: number of time points (of 4; 2 h point missing) at which kinase-Nluc abundance scored as decreased, DMSO-normalised (count); higher = more persistent destabilization
CDK7 = CDK7 (UniProt P50613); test: as above
CDK9 = CDK9 (UniProt P50750); test: as above

## Cc1cc(O)c2c(c1)C(=O)c1cc(O)cc(O)c1C2=O [Emodin] (10 µM)
ROR2
  number of time points: 0
RPS6KA1
  number of time points: 0
SPHK1
  number of time points: 4
SRC
  number of time points: 0
STK24
  number of time points: 0
STK38
  number of time points: 0
SYK
  number of time points: 0
TEC
  number of time points: 0
TYK2
  number of time points: 0
ULK3
  number of time points: 0
YES1
  number of time points: 0
ZAK
  number of time points: 0
ZAP70
  number of time points: 0
CDK4
  number of time points: 0
CDK7
  number of time points: 0
CDK9
  number of time points: 0

## CNC(=O)c1ccc(C)c(-n2c(C)cc(OCc3ccc(F)cc3F)c(Br)c2=O)c1 (10 µM)
ROR2
  number of time points: 0
RPS6KA1
  number of time points: 0
SPHK1
  number of time points: 0
SRC
  number of time points: 0
STK24
  number of time points: 0
STK38
  number of time points: 0
SYK
  number of time points: 0
TEC
  number of time points: 0
TYK2
  number of time points: 0
ULK3
  number of time points: 0
YES1
  number of time points: 0
ZAK
  number of time points: 0
ZAP70
  number of time points: 0
CDK4
  number of time points: 0
CDK7
  number of time points: 0
CDK9
  number of time points: 0

## COc1cccc(OC)c1C(=O)OCc1cc(O)ccc1O[C@@H]1O[C@H](CO)[C@@H](O)[C@H](O)[C@H]1O [Curculigoside] (10 µM)
ROR2
  number of time points: 0
RPS6KA1
  number of time points: 0
SPHK1
  number of time points: 0
SRC
  number of time points: 0
STK24
  number of time points: 0
STK38
  number of time points: 0
SYK
  number of time points: 0
TEC
  number of time points: 0
TYK2
  number of time points: 0
ULK3
  number of time points: 0
YES1
  number of time points: 0
ZAK
  number of time points: 0
ZAP70
  number of time points: 0
CDK4
  number of time points: 0
CDK7
  number of time points: 0
CDK9
  number of time points: 0

## CCCCCCCCCCCCC/C=C/[C@@H](O)[C@@H](N)CO [D-erythro-Sphingosine] (2.5 µM)
ROR2
  number of time points: 0
RPS6KA1
  number of time points: 0
SPHK1
  number of time points: 0
SRC
  number of time points: 0
STK24
  number of time points: 0
STK38
  number of time points: 0
SYK
  number of time points: 0
TEC
  number of time points: 0
TYK2
  number of time points: 0
ULK3
  number of time points: 0
YES1
  number of time points: 0
ZAK
  number of time points: 0
ZAP70
  number of time points: 0
CDK4
  number of time points: 0
CDK7
  number of time points: 0
CDK9
  number of time points: 0

## Cn1cc(-c2ccc3c(c2)CCN3C(=O)Cc2cccc(C(F)(F)F)c2)c2c(N)ncnc21 (2.5 µM)
ROR2
  number of time points: 0
RPS6KA1
  number of time points: 0
SPHK1
  number of time points: 0
SRC
  number of time points: 0
STK24
  number of time points: 0
STK38
  number of time points: 0
SYK
  number of time points: 0
TEC
  number of time points: 0
TYK2
  number of time points: 0
ULK3
  number of time points: 0
YES1
  number of time points: 0
ZAK
  number of time points: 0
ZAP70
  number of time points: 0
CDK4
  number of time points: 0
CDK7
  number of time points: 0
CDK9
  number of time points: 0

## CNc1nc(Nc2ccc(C(=O)N3CCOCC3)cc2OC)nc2[nH]cc(Cl)c12 (2.5 µM)
ROR2
  number of time points: 0
RPS6KA1
  number of time points: 0
SPHK1
  number of time points: 0
SRC
  number of time points: 0
STK24
  number of time points: 0
STK38
  number of time points: 0
SYK
  number of time points: 0
TEC
  number of time points: 0
TYK2
  number of time points: 0
ULK3
  number of time points: 0
YES1
  number of time points: 0
ZAK
  number of time points: 0
ZAP70
  number of time points: 0
CDK4
  number of time points: 0
CDK7
  number of time points: 0
CDK9
  number of time points: 0

## CN(C)C(=O)Cn1cc(-c2ccc(-c3cncc4ccccc34)cc2)cn1 (10 µM)
ROR2
  number of time points: 0
RPS6KA1
  number of time points: 0
SPHK1
  number of time points: 0
SRC
  number of time points: 0
STK24
  number of time points: 0
STK38
  number of time points: 0
SYK
  number of time points: 0
TEC
  number of time points: 0
TYK2
  number of time points: 0
ULK3
  number of time points: 0
YES1
  number of time points: 0
ZAK
  number of time points: 0
ZAP70
  number of time points: 0
CDK4
  number of time points: 0
CDK7
  number of time points: 0
CDK9
  number of time points: 0

## COc1cc(Nc2ncc(F)c(Nc3ccc4c(n3)NC(=O)C(C)(C)O4)n2)cc(OC)c1OC [R406 (free base)] (10 µM)
ROR2
  number of time points: 0
RPS6KA1
  number of time points: 0
SPHK1
  number of time points: 0
SRC
  number of time points: 0
STK24
  number of time points: 0
STK38
  number of time points: 0
TEC
  number of time points: 0
TYK2
  number of time points: 0
ULK3
  number of time points: 0
YES1
  number of time points: 0
ZAK
  number of time points: 0
ZAP70
  number of time points: 0
CDK4
  number of time points: 0
CDK7
  number of time points: 0
CDK9
  number of time points: 0

## CC1(C)C(O[C@@H]2OC[C@@H](O)[C@H](O)[C@H]2O)CC[C@]23CC24CC[C@]2(C)[C@@H]([C@@]5(C)CC[C@@H](C(C)(C)O)O5)[C@H](O)C[C@@]2(C)C4C[C@@H](O[C@@H]2O[C@H](CO)[C@@H](O)[C@H](O)[C@H]2O)C13 (stereo partly specified) [Astragaloside IV] (10 µM)
ROR2
  number of time points: 0
RPS6KA1
  number of time points: 0
SPHK1
  number of time points: 0
SRC
  number of time points: 0
STK24
  number of time points: 0
STK38
  number of time points: 0
SYK
  number of time points: 0
TEC
  number of time points: 0
TYK2
  number of time points: 0
ULK3
  number of time points: 0
YES1
  number of time points: 0
ZAK
  number of time points: 0
ZAP70
  number of time points: 0
CDK4
  number of time points: 0
CDK7
  number of time points: 0
CDK9
  number of time points: 0

## CN(CC(=O)N(Cc1ccc(C2CCCCC2)cc1)c1ccc(C(=O)NO)cc1)S(=O)(=O)c1c(F)c(F)c(F)c(F)c1F (2.5 µM)
ROR2
  number of time points: 0
RPS6KA1
  number of time points: 0
SPHK1
  number of time points: 0
SRC
  number of time points: 0
STK24
  number of time points: 0
STK38
  number of time points: 0
SYK
  number of time points: 0
TEC
  number of time points: 0
TYK2
  number of time points: 0
ULK3
  number of time points: 0
YES1
  number of time points: 0
ZAK
  number of time points: 0
ZAP70
  number of time points: 0
CDK4
  number of time points: 0
CDK7
  number of time points: 0
CDK9
  number of time points: 0

## CCN1CCN(Cc2ccc(Nc3ncc(F)c(-c4cc(F)c5nc(C)n(C(C)C)c5c4)n3)nc2)CC1 [Abemaciclib (methanesulfonate)] (10 µM)
ROR2
  number of time points: 0
RPS6KA1
  number of time points: 0
SPHK1
  number of time points: 0
SRC
  number of time points: 0
STK24
  number of time points: 0
STK38
  number of time points: 0
SYK
  number of time points: 0
TEC
  number of time points: 0
TYK2
  number of time points: 0
ULK3
  number of time points: 0
YES1
  number of time points: 0
ZAK
  number of time points: 0
ZAP70
  number of time points: 0
CDK4
  number of time points: 0
CDK7
  number of time points: 0
CDK9
  number of time points: 0

## CCCS(=O)(=O)Nc1ccc(F)c(C(=O)c2c[nH]c3ncc(-c4ccc(Cl)cc4)cc23)c1F [Vemurafenib] (10 µM)
ROR2
  number of time points: 0
RPS6KA1
  number of time points: 0
SPHK1
  number of time points: 0
SRC
  number of time points: 0
STK24
  number of time points: 0
STK38
  number of time points: 0
SYK
  number of time points: 0
TEC
  number of time points: 0
TYK2
  number of time points: 0
ULK3
  number of time points: 0
YES1
  number of time points: 0
ZAK
  number of time points: 0
ZAP70
  number of time points: 0
CDK4
  number of time points: 0
CDK7
  number of time points: 0
CDK9
  number of time points: 0
